{"source": "PubChem BioAssay AID1508597 | Cure First, 2020", "assay": "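Genes whose silencing sensitises or protects ovarian cancer cells against rucaparib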 (primary screen)", "cells": "human ovarian carcinoma lines grown from tumours: OCI-P5x (papillary serous) and OCI-C5x (clear cell)", "reagent": "siRNA pool against human genes, 1.25 pmol siRNA per well", "duration": "72 h or 96 h, depending on the cell culture", "conditions": "rucaparib 20 µM (about IC30) or vehicle, present until read-out", "measurement": "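ATP luminescence measured at 72 or 96 h according to the culture, then normalised and expressed as percent viability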", "scale": "viability, normalised: higher = more viable cells remaining", "hit rule": "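Active when normalised viability falls below 80 percent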", "calls": "active = viability under 80%; inactive = viability 80% or more", "note": "In all, the deposit lists about 2,100 reagents; this is a random part of them. 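Calls flag viability under 80% in either arm, not effects specific to rucaparib; the reference for percent is not stated.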 The record does not give: the 100% reference."}
{"gene knocked down": "MUS81", "PubChem SID": "SID405528435", "rucaparib or vehicle": "Rucaparib", "cell line": "OCI-C5x (clear cell)", "technical replicate": "1", "viability, normalised (%)": 67.5, "activity call": "active"}
{"gene knocked down": "MUS81", "PubChem SID": "SID405528435", "rucaparib or vehicle": "Rucaparib", "cell line": "OCI-C5x (clear cell)", "technical replicate": "2", "viability, normalised (%)": 67.2, "activity call": "active"}
{"gene knocked down": "MUS81", "PubChem SID": "SID405528435", "rucaparib or vehicle": "Rucaparib", "cell line": "OCI-C5x (clear cell)", "technical replicate": "3", "viability, normalised (%)": 70.4, "activity call": "active"}
{"gene knocked down": "MUS81", "PubChem SID": "SID405528435", "rucaparib or vehicle": "Rucaparib", "cell line": "OCI-P5x (serous)", "technical replicate": "1", "viability, normalised (%)": 111, "activity call": "inactive"}
{"gene knocked down": "MUS81", "PubChem SID": "SID405528435", "rucaparib or vehicle": "Rucaparib", "cell line": "OCI-P5x (serous)", "technical replicate": "2", "viability, normalised (%)": 82.3, "activity call": "inactive"}
{"gene knocked down": "MUS81", "PubChem SID": "SID405528435", "rucaparib or vehicle": "Rucaparib", "cell line": "OCI-P5x (serous)", "technical replicate": "3", "viability, normalised (%)": 64.6, "activity call": "active"}
{"gene knocked down": "MUS81", "PubChem SID": "SID405528435", "rucaparib or vehicle": "Vehicle", "cell line": "OCI-C5x (clear cell)", "technical replicate": "1", "viability, normalised (%)": 49.7, "activity call": "active"}
{"gene knocked down": "MUS81", "PubChem SID": "SID405528435", "rucaparib or vehicle": "Vehicle", "cell line": "OCI-C5x (clear cell)", "technical replicate": "2", "viability, normalised (%)": 59.4, "activity call": "active"}
{"gene knocked down": "MUS81", "PubChem SID": "SID405528435", "rucaparib or vehicle": "Vehicle", "cell line": "OCI-C5x (clear cell)", "technical replicate": "3", "viability, normalised (%)": 47.5, "activity call": "active"}
{"gene knocked down": "MUS81", "PubChem SID": "SID405528435", "rucaparib or vehicle": "Vehicle", "cell line": "OCI-P5x (serous)", "technical replicate": "1", "viability, normalised (%)": 71.6, "activity call": "active"}
{"gene knocked down": "MUS81", "PubChem SID": "SID405528435", "rucaparib or vehicle": "Vehicle", "cell line": "OCI-P5x (serous)", "technical replicate": "2", "viability, normalised (%)": 79.2, "activity call": "active"}
{"gene knocked down": "MUS81", "PubChem SID": "SID405528435", "rucaparib or vehicle": "Vehicle", "cell line": "OCI-P5x (serous)", "technical replicate": "3", "viability, normalised (%)": 73.9, "activity call": "active"}

Continued (3 carried over from the part before).
{"gene knocked down": "MUS81", "PubChem SID": "SID405528435", "rucaparib or vehicle": "Vehicle", "cell line": "OCI-P5x (serous)", "technical replicate": "1", "viability, normalised (%)": 71.6, "activity call": "active"}
{"gene knocked down": "MUS81", "PubChem SID": "SID405528435", "rucaparib or vehicle": "Vehicle", "cell line": "OCI-P5x (serous)", "technical replicate": "2", "viability, normalised (%)": 79.2, "activity call": "active"}
{"gene knocked down": "MUS81", "PubChem SID": "SID405528435", "rucaparib or vehicle": "Vehicle", "cell line": "OCI-P5x (serous)", "technical replicate": "3", "viability, normalised (%)": 73.9, "activity call": "active"}
{"gene knocked down": "BAZ2B", "PubChem SID": "SID405528019", "rucaparib or vehicle": "Rucaparib", "cell line": "OCI-C5x (clear cell)", "technical replicate": "1", "viability, normalised (%)": 35, "activity call": "active"}
{"gene knocked down": "BAZ2B", "PubChem SID": "SID405528019", "rucaparib or vehicle": "Rucaparib", "cell line": "OCI-C5x (clear cell)", "technical replicate": "2", "viability, normalised (%)": 42.2, "activity call": "active"}
{"gene knocked down": "BAZ2B", "PubChem SID": "SID405528019", "rucaparib or vehicle": "Rucaparib", "cell line": "OCI-C5x (clear cell)", "technical replicate": "3", "viability, normalised (%)": 35.9, "activity call": "active"}
{"gene knocked down": "BAZ2B", "PubChem SID": "SID405528019", "rucaparib or vehicle": "Rucaparib", "cell line": "OCI-P5x (serous)", "technical replicate": "1", "viability, normalised (%)": 70, "activity call": "active"}
{"gene knocked down": "BAZ2B", "PubChem SID": "SID405528019", "rucaparib or vehicle": "Rucaparib", "cell line": "OCI-P5x (serous)", "technical replicate": "2", "viability, normalised (%)": 66.6, "activity call": "active"}
{"gene knocked down": "BAZ2B", "PubChem SID": "SID405528019", "rucaparib or vehicle": "Rucaparib", "cell line": "OCI-P5x (serous)", "technical replicate": "3", "viability, normalised (%)": 63.1, "activity call": "active"}
{"gene knocked down": "BAZ2B", "PubChem SID": "SID405528019", "rucaparib or vehicle": "Vehicle", "cell line": "OCI-C5x (clear cell)", "technical replicate": "1", "viability, normalised (%)": 26.6, "activity call": "active"}
{"gene knocked down": "BAZ2B", "PubChem SID": "SID405528019", "rucaparib or vehicle": "Vehicle", "cell line": "OCI-C5x (clear cell)", "technical replicate": "2", "viability, normalised (%)": 38.1, "activity call": "active"}
{"gene knocked down": "BAZ2B", "PubChem SID": "SID405528019", "rucaparib or vehicle": "Vehicle", "cell line": "OCI-C5x (clear cell)", "technical replicate": "3", "viability, normalised (%)": 32.6, "activity call": "active"}
{"gene knocked down": "BAZ2B", "PubChem SID": "SID405528019", "rucaparib or vehicle": "Vehicle", "cell line": "OCI-P5x (serous)", "technical replicate": "1", "viability, normalised (%)": 66.4, "activity call": "active"}
{"gene knocked down": "BAZ2B", "PubChem SID": "SID405528019", "rucaparib or vehicle": "Vehicle", "cell line": "OCI-P5x (serous)", "technical replicate": "2", "viability, normalised (%)": 66.6, "activity call": "active"}
{"gene knocked down": "BAZ2B", "PubChem SID": "SID405528019", "rucaparib or vehicle": "Vehicle", "cell line": "OCI-P5x (serous)", "technical replicate": "3", "viability, normalised (%)": 66.9, "activity call": "active"}
{"gene knocked down": "MTA3", "PubChem SID": "SID405527036", "rucaparib or vehicle": "Rucaparib", "cell line": "OCI-C5x (clear cell)", "technical replicate": "1", "viability, normalised (%)": 42, "activity call": "active"}
{"gene knocked down": "MTA3", "PubChem SID": "SID405527036", "rucaparib or vehicle": "Rucaparib", "cell line": "OCI-C5x (clear cell)", "technical replicate": "2", "viability, normalised (%)": 50.9, "activity call": "active"}
{"gene knocked down": "MTA3", "PubChem SID": "SID405527036", "rucaparib or vehicle": "Rucaparib", "cell line": "OCI-C5x (clear cell)", "technical replicate": "3", "viability, normalised (%)": 49.6, "activity call": "active"}
{"gene knocked down": "MTA3", "PubChem SID": "SID405527036", "rucaparib or vehicle": "Rucaparib", "cell line": "OCI-P5x (serous)", "technical replicate": "1", "viability, normalised (%)": 47.2, "activity call": "active"}
{"gene knocked down": "MTA3", "PubChem SID": "SID405527036", "rucaparib or vehicle": "Rucaparib", "cell line": "OCI-P5x (serous)", "technical replicate": "2", "viability, normalised (%)": 60.3, "activity call": "active"}
{"gene knocked down": "MTA3", "PubChem SID": "SID405527036", "rucaparib or vehicle": "Rucaparib", "cell line": "OCI-P5x (serous)", "technical replicate": "3", "viability, normalised (%)": 57.5, "activity call": "active"}
{"gene knocked down": "MTA3", "PubChem SID": "SID405527036", "rucaparib or vehicle": "Vehicle", "cell line": "OCI-C5x (clear cell)", "technical replicate": "1", "viability, normalised (%)": 53.8, "activity call": "active"}
{"gene knocked down": "MTA3", "PubChem SID": "SID405527036", "rucaparib or vehicle": "Vehicle", "cell line": "OCI-C5x (clear cell)", "technical replicate": "2", "viability, normalised (%)": 60.8, "activity call": "active"}
{"gene knocked down": "MTA3", "PubChem SID": "SID405527036", "rucaparib or vehicle": "Vehicle", "cell line": "OCI-C5x (clear cell)", "technical replicate": "3", "viability, normalised (%)": 58.6, "activity call": "active"}
{"gene knocked down": "MTA3", "PubChem SID": "SID405527036", "rucaparib or vehicle": "Vehicle", "cell line": "OCI-P5x (serous)", "technical replicate": "1", "viability, normalised (%)": 75.6, "activity call": "active"}
{"gene knocked down": "MTA3", "PubChem SID": "SID405527036", "rucaparib or vehicle": "Vehicle", "cell line": "OCI-P5x (serous)", "technical replicate": "2", "viability, normalised (%)": 65.7, "activity call": "active"}
{"gene knocked down": "MTA3", "PubChem SID": "SID405527036", "rucaparib or vehicle": "Vehicle", "cell line": "OCI-P5x (serous)", "technical replicate": "3", "viability, normalised (%)": 69.9, "activity call": "active"}
